# Reference: doi:10.1101/2023.09.13.557663
# Chains of the proteins cited; added tags and fusions are not shown.
# UniProt Q92783: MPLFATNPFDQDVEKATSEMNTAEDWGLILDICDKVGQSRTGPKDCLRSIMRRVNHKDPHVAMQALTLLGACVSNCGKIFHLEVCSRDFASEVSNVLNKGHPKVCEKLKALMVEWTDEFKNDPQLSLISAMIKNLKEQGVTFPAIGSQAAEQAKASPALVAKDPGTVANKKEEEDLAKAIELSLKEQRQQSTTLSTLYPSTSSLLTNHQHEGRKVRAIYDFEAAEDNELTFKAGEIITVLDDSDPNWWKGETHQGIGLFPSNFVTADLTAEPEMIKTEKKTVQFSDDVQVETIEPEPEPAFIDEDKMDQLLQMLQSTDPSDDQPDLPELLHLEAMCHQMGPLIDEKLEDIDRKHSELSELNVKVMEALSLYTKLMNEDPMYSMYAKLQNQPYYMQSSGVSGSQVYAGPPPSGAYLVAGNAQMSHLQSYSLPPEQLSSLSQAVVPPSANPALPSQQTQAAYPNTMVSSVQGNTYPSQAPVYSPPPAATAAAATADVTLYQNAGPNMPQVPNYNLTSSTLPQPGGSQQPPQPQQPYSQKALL
# UniProt P51692: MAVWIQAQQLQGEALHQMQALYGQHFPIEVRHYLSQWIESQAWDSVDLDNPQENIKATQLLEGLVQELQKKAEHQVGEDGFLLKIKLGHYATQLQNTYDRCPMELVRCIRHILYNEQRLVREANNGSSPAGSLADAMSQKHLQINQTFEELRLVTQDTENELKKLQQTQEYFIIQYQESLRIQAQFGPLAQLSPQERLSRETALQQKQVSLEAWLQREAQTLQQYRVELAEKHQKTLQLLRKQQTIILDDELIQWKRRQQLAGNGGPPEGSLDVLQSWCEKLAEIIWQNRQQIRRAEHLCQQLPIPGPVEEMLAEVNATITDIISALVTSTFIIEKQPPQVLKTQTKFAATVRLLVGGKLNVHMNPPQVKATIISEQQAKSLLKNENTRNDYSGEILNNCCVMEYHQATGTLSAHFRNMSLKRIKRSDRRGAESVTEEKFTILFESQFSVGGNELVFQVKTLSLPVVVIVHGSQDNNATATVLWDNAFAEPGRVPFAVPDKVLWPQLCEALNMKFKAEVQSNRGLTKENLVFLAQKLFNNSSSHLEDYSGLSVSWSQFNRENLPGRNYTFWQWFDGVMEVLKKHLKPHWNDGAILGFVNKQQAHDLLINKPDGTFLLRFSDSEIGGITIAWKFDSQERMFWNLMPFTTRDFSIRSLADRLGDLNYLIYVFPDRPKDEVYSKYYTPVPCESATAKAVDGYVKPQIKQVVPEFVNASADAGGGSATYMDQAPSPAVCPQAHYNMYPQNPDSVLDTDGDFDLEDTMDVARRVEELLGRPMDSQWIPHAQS
# UniProt Q01968: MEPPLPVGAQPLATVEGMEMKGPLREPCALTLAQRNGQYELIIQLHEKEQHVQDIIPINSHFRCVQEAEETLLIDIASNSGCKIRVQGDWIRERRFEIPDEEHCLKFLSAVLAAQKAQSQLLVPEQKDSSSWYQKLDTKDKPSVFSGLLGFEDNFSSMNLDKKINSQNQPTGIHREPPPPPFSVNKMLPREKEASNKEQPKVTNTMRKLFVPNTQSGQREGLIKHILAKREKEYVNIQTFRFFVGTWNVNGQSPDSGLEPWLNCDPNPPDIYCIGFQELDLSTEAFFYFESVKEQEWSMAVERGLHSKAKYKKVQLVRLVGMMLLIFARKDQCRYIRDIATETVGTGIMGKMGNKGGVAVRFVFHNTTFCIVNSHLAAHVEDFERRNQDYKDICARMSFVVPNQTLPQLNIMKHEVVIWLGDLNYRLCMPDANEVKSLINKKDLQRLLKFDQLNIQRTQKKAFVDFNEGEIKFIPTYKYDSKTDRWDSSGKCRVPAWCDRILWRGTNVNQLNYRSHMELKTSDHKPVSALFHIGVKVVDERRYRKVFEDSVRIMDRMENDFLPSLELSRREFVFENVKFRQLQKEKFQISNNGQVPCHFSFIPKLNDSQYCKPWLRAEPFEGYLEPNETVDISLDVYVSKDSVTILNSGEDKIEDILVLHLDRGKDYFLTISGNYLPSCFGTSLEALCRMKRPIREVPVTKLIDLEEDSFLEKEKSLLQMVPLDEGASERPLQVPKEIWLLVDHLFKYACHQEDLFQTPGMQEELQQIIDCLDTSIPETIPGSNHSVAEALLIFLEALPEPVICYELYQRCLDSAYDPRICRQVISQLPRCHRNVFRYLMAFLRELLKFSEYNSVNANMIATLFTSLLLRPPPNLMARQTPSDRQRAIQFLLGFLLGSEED
# UniProt Q07912: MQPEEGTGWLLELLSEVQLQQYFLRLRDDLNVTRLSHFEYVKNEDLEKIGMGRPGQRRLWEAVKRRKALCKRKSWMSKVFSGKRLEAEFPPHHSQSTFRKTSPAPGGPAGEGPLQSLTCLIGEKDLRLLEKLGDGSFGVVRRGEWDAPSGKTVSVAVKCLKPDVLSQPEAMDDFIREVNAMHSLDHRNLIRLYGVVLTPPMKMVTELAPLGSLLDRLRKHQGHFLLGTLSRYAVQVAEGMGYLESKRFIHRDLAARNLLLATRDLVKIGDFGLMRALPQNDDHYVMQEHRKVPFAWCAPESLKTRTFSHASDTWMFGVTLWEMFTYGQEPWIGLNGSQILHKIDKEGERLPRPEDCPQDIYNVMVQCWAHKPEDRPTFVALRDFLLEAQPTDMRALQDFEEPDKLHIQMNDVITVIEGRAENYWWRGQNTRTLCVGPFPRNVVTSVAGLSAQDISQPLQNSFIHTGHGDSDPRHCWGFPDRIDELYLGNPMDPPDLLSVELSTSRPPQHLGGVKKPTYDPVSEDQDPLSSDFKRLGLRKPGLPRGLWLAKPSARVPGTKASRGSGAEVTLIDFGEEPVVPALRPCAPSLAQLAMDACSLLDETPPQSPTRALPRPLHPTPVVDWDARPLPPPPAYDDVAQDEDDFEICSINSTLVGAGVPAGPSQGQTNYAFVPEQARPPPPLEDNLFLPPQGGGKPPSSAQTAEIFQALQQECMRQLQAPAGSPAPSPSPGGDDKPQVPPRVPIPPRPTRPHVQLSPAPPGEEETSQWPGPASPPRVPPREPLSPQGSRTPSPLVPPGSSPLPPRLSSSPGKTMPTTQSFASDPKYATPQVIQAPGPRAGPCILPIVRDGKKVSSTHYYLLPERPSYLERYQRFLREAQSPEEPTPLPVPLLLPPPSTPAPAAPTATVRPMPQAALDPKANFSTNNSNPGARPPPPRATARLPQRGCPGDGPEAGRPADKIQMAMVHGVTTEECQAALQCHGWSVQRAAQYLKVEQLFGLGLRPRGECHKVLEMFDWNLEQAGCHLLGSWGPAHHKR
# No constants are given. Whether binding was seen depends on the method and setting. Binding seen in cells or lysates may run through a third protein. These calls come from enrichment with a bait or labelling near it, and not all partners need be listed.
# Molecular target: EGFR-flag-TurboID (EGFR-TurboID fusion construct, HeLa clone T1) (UniProt P00533)
# Experiment: proximity labelling
row,Substance,binding
1,HGS (from UniProt O14964 1-777),binds
2,STAM (from UniProt Q92783 1-540),binds
3,STAT5B (from UniProt P51692 1-787),binds
4,inositol polyphosphate 5-phosphatase OCRL (from UniProt Q01968 1-901),binds
5,non-receptor tyrosine kinase TNK2 (from UniProt Q07912 1-1038),binds
